# PubChem BioAssay AID652259 – Drosophila RNAi Screening Center | 2013
# Screen: 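Knock-downs that push a Wingless-driven reporter up or down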 (primary screen)
# Cell system: Drosophila clone 8 imaginal disc epithelial cells
# Knock-down reagent: long dsRNA against Drosophila genes
# Treatment: pathway stimulated by co-transfected Wingless expression plasmid
# Measured: 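Firefly luciferase from a tcf-site Wingless reporter, measured alongside co-transfected Renilla luciferase that tracks transfection; pathway stimulated by a Wingless plasmid; the firefly-to-Renilla ratio is not deposited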
# Scale: firefly reporter light: higher = more Wg reporter light, before normalisation; Renilla control light: higher = more transfected or surviving cells
# Call rule: 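a knock-down is a candidate when at least two out of four statistical tests show it departing from its plate mean; one test alone signals a weak candidate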
# Calls: active = candidate regulator (raises or lowers reporter); inactive = not a candidate
# The deposit covers about 22,000 reagents; this is a random part of those with a known target gene and a result. In the full data, 233 (1.1%) are marked active. 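Light values are raw, unnormalised plate reads; the ratio scores behind the reporter calls were not deposited.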 Names joined by + are all predicted targets of the reagent. Reagent sequences are not shown. Not given: the amount of reagent, the time to read-out, the dose of the treatment.
target,dsRNA,"reporter change call, replicate 1","firefly reporter light, replicate 1","firefly reporter light, replicate 2","Renilla control light, replicate 1","Renilla control light, replicate 2",call
Ndc1,DRSC15895,,2825,4338,1234,1746,inactive
CG43307,DRSC00893,,23216,7.08e5,11449,3.41e5,inactive
Rtf1,DRSC04085,,9451,,2349,,inactive
Tret1-1,DRSC07046,,4416,,2283,,inactive
Tret1-1,DRSC07048,,5056,,2129,,inactive
Fer3,DRSC16133,,6108,,1936,,inactive
Manf,DRSC14091,,4295,7946,1728,2704,inactive
CG43116,DRSC13737,,1660,,656,,inactive
CG15394,DRSC00408,,2497,5133,938,1817,inactive
Dhpr,DRSC11135,,3784,9594,1770,4169,inactive
CG14853,DRSC14977,,12759,,6224,,inactive
CG14853,DRSC21528,,2.99e5,3.51e5,1.86e5,1.63e5,inactive
SMC1,DRSC16846,,26499,,14961,,inactive
SIDL,DRSC16077,,5392,,1920,,inactive
CG14545,DRSC14889,,17016,,15986,,inactive
CG5913,DRSC15916,,18456,,18753,,inactive
caly,DRSC07182,,15416,,4837,,inactive
ATPCL,DRSC05913,,8161,,1962,,inactive
Sfp38D,DRSC01810,,18210,,10595,,inactive
futsch,DRSC17688,,3621,,1216,,inactive
futsch,DRSC17949,,23206,,14439,,inactive
futsch,DRSC17952,,3388,5224,1211,2961,inactive
futsch,DRSC18543,,15669,,10705,,inactive
Gycalpha99B,DRSC16690,,2779,5160,1169,1858,inactive
psd,DRSC03131,,3443,8957,1040,2818,inactive
Tpr2,DRSC03461,,13764,,2682,,inactive
DNAlig1,DRSC04518,,10964,,2986,,inactive
lncRNA:iab8,DRSC13187,,4423,7.58e5,1643,3.47e5,inactive
lncRNA:iab8,DRSC22252,,5.86e5,5.82e5,1.32e5,1.42e5,inactive
lola,DRSC05220,,15577,,13752,,inactive
lola,DRSC05221,,18900,,20453,,inactive
lola,DRSC05222,,22029,,18018,,inactive
lola,DRSC05223,,25617,,12930,,inactive
lola,DRSC05224,,22924,,12508,,inactive
lola,DRSC06738,,5738,,1305,,inactive
lola,DRSC06739,,2429,6961,534,1616,inactive
lola,DRSC06740,,9763,,2278,,inactive
lola,DRSC06741,,1493,5525,615,2408,inactive
lola,DRSC06742,,2853,3520,310,800,inactive
lola,DRSC07646,,13658,,4631,,inactive
lola,DRSC07647,,3556,6632,816,3030,inactive
trk,DRSC03625,,3878,4916,969,2668,inactive
CG14671,DRSC12257,,17154,,4315,,inactive
Tapdelta,DRSC05946,,9752,,3064,,inactive
nmdyn-D7,DRSC17016,,13241,,3458,,inactive
CG8281,DRSC10976,,1307,7146,1460,3605,inactive
CG17839,DRSC10290,,5201,,2208,,inactive
CG17839,DRSC10291,,5187,,2471,,inactive
Prosalpha2,DRSC16798,,11399,,3504,,inactive
Gbs-70E,DRSC11055,,7949,,3138,,inactive
CG43349,DRSC00039,,24244,7.91e5,10984,3.10e5,inactive
EndoGI,DRSC01964,,2435,3259,1018,1916,inactive
nAChRbeta2,DRSC17010,,1684,6816,1130,1797,inactive
CG34025,DRSC08014,,2872,,1393,,inactive

An excerpt from above, reduced to “Renilla control light, replicate 1”.
lola [DRSC05221]: 20453
lola [DRSC05222]: 18018
lola [DRSC05223]: 12930
lola [DRSC05224]: 12508
lola [DRSC06738]: 1305

The list goes on.
target,dsRNA,"reporter change call, replicate 1","firefly reporter light, replicate 1","firefly reporter light, replicate 2","Renilla control light, replicate 1","Renilla control light, replicate 2",call
CG5850,DRSC02905,,7273,,2504,,inactive
Lst8,DRSC18262,,2138,4365,683,1460,inactive
Ir60d,DRSC04218,,3387,9437,1061,3493,inactive
dila,DRSC06607,,4171,13011,1575,5213,inactive
Brd,DRSC09685,,10228,,2753,,inactive
CG13033,DRSC09913,,4246,,2198,,inactive
CG33281,DRSC00421,,1699,5466,675,1832,inactive
tmod,DRSC13993,,3400,,1170,,inactive
tmod,DRSC14314,,5280,,2720,,inactive
tmod,DRSC15076,,11752,,3497,,inactive
tmod,DRSC17062,,2086,3835,1325,584,inactive
140up,DRSC12634,,5831,,2070,,inactive
CG4734,DRSC06885,,9212,,4178,,inactive
CG4734,DRSC22072,,4.58e5,4.46e5,96125,1.00e5,inactive
Zn72D,DRSC11318,,4576,,1456,,inactive
CG2233,DRSC18217,,2193,4281,1035,1364,inactive
Ugt305A1,DRSC08541,,4264,,1626,,inactive
CG34284,DRSC14773,,8627,,1386,,inactive
pic,DRSC16639,,6093,,2361,,inactive
Spt5,DRSC07556,,5803,,1792,,inactive
CG7991,DRSC08609,,4865,,2709,,inactive
CheB98a,DRSC14882,,9010,,3152,,inactive
CG8180,DRSC07092,,13602,,3969,,inactive
CG8180,DRSC07093,,4776,,1225,,inactive
CG6052,DRSC10574,,3788,,1876,,inactive
PEK,DRSC12361,,9440,,3610,,inactive
lgs,DRSC17152,Wg reporter activity lowered,528,984,1207,2198,active
CG4842,DRSC10453,,7632,,3627,,inactive
CG31098,DRSC14259,,19904,,14100,,inactive
CG32971,DRSC01372,,11290,,6506,,inactive
Gtpx,DRSC08221,,12022,,5392,,inactive
Gtpx,DRSC22117,,4.54e5,4.31e5,1.94e5,2.46e5,inactive
Naa30A,DRSC18583,,1787,3649,721,904,inactive
NT5E-2,DRSC06893,,16816,,3939,,inactive
pgc,DRSC04099,,2038,9987,583,3520,inactive
MAPk-Ak2,DRSC18678,,19323,,9184,,inactive
Rab9D + Rab9Fa + Rab9E,DRSC19853,,17291,,8796,,inactive
AcCoAS,DRSC11477,,3866,,1922,,inactive
AcCoAS,DRSC11603,,3360,,951,,inactive
AcCoAS,DRSC22850,,7.03e5,7.37e5,2.09e5,2.41e5,inactive
